In the supplement of paper PMC12595434, “Development of retinoid nuclear receptor pathway antagonists through targeting aldehyde dehydrogenase 1A3” (iScience, 2025):
This is one part of the list. This is a noisy data set.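 Tm was set to 64 °C where no melting was found, and many curves are irregular.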

By UniProt entry, the sequences of proteins in these tests, tags left out. Where a name states a change or a piece, a line headed by the entry shows the natural chain unless it says otherwise.
UniProt P35659: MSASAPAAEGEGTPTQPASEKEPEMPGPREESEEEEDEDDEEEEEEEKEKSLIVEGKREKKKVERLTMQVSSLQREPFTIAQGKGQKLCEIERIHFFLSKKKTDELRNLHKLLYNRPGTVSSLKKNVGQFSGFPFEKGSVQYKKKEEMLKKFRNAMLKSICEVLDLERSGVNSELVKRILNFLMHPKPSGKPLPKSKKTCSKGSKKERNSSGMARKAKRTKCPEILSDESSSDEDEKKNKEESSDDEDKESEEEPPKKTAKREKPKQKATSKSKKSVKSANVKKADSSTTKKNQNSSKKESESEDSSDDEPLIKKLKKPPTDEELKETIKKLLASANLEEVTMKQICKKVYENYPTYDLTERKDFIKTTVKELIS
UniProt P20674, whole entry: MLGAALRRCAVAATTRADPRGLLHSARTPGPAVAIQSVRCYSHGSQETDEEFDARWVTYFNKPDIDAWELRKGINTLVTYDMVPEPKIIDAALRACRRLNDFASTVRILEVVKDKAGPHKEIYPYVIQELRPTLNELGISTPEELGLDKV
UniProt P27797, whole entry: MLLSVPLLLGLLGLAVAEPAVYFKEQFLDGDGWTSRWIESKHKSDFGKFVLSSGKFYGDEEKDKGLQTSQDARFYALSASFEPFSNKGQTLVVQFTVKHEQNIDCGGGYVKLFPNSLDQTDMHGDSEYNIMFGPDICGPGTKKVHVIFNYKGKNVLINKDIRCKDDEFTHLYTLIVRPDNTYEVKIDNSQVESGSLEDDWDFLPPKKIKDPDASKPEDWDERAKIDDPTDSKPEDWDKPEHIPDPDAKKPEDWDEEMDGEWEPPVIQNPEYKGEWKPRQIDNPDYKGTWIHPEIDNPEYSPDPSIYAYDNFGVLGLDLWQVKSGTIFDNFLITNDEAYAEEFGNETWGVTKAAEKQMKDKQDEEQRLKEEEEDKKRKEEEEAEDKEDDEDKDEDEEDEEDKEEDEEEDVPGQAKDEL
UniProt P30260, whole entry: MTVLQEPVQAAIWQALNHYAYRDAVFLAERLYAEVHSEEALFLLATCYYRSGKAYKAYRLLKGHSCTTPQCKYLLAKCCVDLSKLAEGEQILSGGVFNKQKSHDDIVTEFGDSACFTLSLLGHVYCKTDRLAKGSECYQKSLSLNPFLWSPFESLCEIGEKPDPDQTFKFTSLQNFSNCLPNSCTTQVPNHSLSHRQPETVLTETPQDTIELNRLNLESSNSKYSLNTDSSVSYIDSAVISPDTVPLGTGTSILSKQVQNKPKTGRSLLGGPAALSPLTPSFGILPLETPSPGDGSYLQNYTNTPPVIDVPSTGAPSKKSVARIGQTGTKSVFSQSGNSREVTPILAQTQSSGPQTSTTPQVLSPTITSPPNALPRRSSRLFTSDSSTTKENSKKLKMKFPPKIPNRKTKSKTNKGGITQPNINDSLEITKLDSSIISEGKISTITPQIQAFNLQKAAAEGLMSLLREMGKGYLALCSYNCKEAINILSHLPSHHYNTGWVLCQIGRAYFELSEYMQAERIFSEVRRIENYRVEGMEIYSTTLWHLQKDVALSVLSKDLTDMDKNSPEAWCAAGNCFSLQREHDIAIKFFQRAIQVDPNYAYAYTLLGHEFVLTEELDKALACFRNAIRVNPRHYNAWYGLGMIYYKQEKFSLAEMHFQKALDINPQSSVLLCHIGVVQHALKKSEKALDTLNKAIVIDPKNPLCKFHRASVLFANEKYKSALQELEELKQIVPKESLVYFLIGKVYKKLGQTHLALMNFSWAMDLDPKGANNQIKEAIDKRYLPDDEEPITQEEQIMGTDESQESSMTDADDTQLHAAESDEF
UniProt P25098: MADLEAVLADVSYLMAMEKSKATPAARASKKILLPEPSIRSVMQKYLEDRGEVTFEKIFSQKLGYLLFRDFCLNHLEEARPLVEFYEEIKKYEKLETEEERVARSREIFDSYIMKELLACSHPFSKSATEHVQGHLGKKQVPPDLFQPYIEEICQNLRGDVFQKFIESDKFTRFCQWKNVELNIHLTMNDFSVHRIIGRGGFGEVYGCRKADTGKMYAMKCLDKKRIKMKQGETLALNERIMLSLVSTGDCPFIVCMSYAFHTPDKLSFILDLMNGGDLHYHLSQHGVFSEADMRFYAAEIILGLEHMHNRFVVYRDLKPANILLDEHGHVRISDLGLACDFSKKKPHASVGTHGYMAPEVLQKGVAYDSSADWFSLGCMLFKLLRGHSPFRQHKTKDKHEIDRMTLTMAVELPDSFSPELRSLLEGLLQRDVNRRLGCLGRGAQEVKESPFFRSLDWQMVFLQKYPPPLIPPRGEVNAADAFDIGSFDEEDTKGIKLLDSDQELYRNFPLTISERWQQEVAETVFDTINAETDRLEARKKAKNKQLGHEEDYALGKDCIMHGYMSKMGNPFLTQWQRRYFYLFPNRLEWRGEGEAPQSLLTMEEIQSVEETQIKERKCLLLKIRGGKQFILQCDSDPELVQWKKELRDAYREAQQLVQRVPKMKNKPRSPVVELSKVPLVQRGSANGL
UniProt P20645: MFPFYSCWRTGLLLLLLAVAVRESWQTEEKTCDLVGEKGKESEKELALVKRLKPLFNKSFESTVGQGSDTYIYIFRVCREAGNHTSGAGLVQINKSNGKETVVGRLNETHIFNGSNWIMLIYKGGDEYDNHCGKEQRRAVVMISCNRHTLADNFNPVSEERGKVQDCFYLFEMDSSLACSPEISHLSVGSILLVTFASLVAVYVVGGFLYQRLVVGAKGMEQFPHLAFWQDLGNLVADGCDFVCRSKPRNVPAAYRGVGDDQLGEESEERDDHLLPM
UniProt P27540, whole entry: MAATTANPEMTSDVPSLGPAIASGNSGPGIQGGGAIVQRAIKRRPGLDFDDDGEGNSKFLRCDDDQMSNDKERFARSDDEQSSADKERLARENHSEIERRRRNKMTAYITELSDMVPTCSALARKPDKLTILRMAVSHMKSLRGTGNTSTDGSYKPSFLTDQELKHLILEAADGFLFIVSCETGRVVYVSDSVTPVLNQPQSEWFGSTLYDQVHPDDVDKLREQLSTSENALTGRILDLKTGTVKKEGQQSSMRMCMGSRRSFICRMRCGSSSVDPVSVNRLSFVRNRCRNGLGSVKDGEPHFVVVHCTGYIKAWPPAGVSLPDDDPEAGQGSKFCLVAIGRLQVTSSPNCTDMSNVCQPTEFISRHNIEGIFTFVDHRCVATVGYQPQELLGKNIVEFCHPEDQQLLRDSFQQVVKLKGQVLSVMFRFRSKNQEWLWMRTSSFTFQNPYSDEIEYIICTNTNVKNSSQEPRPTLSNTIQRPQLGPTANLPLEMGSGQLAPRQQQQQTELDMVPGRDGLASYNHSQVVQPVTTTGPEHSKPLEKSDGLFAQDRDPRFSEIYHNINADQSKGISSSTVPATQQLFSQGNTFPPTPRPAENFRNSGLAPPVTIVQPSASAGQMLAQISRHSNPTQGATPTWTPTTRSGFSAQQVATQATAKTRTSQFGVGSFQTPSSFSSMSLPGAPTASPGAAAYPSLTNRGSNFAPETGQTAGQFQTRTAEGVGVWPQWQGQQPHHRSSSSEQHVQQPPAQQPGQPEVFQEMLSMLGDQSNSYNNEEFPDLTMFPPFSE
UniProt P22626: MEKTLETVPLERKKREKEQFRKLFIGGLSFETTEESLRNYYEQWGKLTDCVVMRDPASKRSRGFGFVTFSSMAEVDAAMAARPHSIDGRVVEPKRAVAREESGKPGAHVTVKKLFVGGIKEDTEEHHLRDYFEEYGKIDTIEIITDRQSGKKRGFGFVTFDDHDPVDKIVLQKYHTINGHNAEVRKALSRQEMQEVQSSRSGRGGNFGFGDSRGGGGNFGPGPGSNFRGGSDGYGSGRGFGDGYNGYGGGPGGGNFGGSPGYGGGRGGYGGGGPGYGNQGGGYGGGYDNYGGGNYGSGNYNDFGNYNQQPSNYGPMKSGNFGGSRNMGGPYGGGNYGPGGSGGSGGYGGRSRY
UniProt P30405: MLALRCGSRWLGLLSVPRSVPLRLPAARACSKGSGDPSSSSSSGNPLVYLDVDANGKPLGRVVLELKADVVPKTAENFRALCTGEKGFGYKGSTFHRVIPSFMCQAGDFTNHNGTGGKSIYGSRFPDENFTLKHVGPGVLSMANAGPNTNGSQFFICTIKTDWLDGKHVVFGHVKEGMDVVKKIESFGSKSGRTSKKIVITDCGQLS
UniProt P29558: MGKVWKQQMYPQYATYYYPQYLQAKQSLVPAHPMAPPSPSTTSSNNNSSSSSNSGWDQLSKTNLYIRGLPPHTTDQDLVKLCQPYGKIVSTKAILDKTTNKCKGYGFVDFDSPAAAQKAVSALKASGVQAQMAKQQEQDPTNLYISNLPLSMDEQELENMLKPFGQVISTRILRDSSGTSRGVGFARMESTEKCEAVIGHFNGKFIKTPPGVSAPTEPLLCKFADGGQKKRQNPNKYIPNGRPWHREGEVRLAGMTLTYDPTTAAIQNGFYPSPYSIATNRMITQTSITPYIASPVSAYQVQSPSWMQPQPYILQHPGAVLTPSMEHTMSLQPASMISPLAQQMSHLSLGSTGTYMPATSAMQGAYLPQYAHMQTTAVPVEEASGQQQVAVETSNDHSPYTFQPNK
UniProt P36405: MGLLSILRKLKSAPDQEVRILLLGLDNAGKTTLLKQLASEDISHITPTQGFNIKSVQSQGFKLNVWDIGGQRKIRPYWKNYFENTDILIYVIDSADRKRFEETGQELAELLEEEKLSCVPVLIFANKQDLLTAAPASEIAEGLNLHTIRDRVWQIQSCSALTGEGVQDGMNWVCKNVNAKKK
UniProt P30419: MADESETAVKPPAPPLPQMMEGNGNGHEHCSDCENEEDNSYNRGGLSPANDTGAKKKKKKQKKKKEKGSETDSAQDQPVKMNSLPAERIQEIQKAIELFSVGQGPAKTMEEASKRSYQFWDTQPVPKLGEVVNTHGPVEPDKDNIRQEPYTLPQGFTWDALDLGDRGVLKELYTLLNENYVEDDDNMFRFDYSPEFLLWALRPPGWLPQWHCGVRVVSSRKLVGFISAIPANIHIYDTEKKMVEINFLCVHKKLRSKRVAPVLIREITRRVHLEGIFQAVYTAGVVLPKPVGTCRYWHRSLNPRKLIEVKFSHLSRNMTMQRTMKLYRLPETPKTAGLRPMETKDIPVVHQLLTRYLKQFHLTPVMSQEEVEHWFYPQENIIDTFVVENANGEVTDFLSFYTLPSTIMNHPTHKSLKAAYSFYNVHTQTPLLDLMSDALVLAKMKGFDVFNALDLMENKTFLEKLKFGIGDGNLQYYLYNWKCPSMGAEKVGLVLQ
UniProt P27348: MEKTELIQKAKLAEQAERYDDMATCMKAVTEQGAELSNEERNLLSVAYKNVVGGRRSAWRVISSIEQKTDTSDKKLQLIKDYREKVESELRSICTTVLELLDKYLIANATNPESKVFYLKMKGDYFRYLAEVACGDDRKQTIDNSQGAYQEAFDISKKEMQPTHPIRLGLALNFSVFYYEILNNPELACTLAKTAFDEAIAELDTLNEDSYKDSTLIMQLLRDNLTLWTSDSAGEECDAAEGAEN
UniProt P20839, whole entry, looked up: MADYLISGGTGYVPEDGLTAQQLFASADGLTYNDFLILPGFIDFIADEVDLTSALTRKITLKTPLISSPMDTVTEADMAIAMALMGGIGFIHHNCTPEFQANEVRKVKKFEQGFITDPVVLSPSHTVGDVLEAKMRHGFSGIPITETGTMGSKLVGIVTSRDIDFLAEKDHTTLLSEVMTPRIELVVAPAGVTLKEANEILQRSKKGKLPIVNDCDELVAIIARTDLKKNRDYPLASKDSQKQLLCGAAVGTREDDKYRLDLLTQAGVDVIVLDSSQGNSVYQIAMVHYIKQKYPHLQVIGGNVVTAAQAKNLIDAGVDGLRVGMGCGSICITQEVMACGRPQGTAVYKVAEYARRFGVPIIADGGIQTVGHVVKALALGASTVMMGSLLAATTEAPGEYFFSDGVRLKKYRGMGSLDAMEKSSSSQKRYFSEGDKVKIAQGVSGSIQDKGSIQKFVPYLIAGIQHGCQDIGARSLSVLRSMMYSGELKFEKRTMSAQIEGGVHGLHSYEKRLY
UniProt P23368: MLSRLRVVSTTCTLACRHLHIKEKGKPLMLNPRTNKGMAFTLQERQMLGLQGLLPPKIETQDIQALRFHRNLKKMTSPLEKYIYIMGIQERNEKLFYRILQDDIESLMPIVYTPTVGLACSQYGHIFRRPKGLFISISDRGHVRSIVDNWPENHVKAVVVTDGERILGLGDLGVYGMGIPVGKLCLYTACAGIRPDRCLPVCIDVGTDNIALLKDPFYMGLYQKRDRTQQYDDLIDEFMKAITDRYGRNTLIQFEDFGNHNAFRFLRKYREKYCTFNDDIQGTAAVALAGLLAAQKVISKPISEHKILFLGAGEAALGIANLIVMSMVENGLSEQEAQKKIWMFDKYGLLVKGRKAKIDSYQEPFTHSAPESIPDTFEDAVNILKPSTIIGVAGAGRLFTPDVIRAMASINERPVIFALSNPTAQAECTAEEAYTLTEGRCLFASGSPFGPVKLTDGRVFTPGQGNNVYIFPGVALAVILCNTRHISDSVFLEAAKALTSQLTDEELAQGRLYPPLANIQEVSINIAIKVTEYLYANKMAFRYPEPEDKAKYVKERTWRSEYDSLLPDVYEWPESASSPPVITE

compound: CCc1cnccc1C(=O)Nc1cc2c(cc1F)NC(=O)CC2; experiment: melting temperature shift (DMSO Tm minus MBE1-treated Tm) in cellular thermal proteome profiling; higher = less thermal stabilization by MBE1 (negative = stabilized by MBE1); settings: A375; MBE1 concentration: 100 nM

Target	melting temperature shift [°C]
SHMT1 (UniProt P34896)	-1.55
DEK (UniProt P35659)	-0.687
FBL (UniProt P22087)	-0.329
COX5A (UniProt P20674)	-2.89
CALR (UniProt P27797)	-0.931
CDC27 (UniProt P30260)	-0.749
UniProt P21127	-0.32
MYH9 (UniProt P35579)	-0.402
CSTF2 (UniProt P33240)	-1.06
UniProt P30414	-0.634
PRKAR1B (UniProt P31321)	0.812
UniProt P25098	0.469
M6PR (UniProt P20645)	-3.25
YY1 (UniProt P25490)	-1.51
DUT (UniProt P33316)	-0.496
DDX6 (UniProt P26196)	-0.165

Target	melting temperature shift [°C]
PRKACB (UniProt P22694)	-0.256
UniProt P21980	-0.409
PPP1CC (UniProt P36873)	-0.00671
AKT1 (UniProt P31749)	0.727
ARNT (UniProt P27540)	-0.0244
HNRNPA2B1 (UniProt P22626)	0.165
PPIF (UniProt P30405)	-0.0939
RBMS1 (UniProt P29558)	0.519
ARL3 (UniProt P36405)	-2.75
SOAT1 (UniProt P35610)	-0.407
NMT1 (UniProt P30419)	-0.664
YWHAQ (UniProt P27348)	-0.309
HIBADH (UniProt P31937)	-2.69
IMPDH1 (UniProt P20839)	-0.644
MUT (UniProt P22033)	0.556
ME2 (UniProt P23368)	0.421

Given bar-delimited: entries from further up.
Target | melting temperature shift [°C]
ARL3 (UniProt P36405) | -2.75
YWHAQ (UniProt P27348) | -0.309
